Results as given in article PMC7708053.

Amino acid sequences for entries named in this document (tags omitted). A change or cut given only in a name is not applied to a line headed by its entry.
UniProt P14866: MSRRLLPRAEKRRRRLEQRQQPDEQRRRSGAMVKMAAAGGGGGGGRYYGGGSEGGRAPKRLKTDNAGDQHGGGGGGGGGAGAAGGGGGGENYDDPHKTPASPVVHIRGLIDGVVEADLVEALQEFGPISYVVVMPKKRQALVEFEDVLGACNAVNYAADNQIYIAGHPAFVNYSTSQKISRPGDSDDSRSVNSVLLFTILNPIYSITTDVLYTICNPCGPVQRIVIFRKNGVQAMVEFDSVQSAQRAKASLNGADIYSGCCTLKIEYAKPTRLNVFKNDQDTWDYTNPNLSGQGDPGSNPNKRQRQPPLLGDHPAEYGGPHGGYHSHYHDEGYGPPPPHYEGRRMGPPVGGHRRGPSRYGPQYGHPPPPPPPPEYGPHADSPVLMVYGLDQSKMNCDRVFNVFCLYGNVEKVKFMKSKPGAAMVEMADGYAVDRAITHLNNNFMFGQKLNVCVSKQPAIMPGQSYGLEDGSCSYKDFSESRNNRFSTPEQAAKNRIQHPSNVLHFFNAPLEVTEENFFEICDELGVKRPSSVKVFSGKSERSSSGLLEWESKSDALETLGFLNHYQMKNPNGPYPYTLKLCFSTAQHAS
UniProt O00425, whole entry: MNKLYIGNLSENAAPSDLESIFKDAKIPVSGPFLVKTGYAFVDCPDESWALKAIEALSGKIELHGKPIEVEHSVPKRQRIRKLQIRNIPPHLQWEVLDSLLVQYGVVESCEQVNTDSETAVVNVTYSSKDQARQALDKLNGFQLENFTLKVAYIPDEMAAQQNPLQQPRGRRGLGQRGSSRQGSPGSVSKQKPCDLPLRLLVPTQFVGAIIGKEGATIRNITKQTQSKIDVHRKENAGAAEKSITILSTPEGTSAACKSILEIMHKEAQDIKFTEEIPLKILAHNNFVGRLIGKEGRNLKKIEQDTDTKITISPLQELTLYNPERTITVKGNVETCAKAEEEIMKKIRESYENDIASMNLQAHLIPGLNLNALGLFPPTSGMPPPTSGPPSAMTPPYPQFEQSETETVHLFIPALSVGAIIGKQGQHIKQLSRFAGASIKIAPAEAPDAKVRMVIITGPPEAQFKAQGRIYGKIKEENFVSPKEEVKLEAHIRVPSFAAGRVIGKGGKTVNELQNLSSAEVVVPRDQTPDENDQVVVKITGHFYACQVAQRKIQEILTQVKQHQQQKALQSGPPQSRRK

Legend:
hnRNP L = hnRNP L (UniProt P14866); experiment: pull-down; conditions: 5-azido-C3-UTP (33%) internal, 50 pmol biotinylated RNA on streptavidin beads with HeLa lysate in RIPA (50 mM Tris-Cl pH 7.4, 150 mM NaCl, 5 mM EDTA, 1% NP-40), washed at 300 mM KCl, protein in an extract, label: biotin (DBCO-PEG4, internal U)
IMP3 = IMP3 (UniProt O00425); experiment: pull-down; conditions: 5-azido-C3-UTP (33%) internal, 50 pmol biotinylated RNA on streptavidin beads with HeLa lysate in RIPA (50 mM Tris-Cl pH 7.4, 150 mM NaCl, 5 mM EDTA, 1% NP-40), washed at 300 mM KCl, protein in an extract, label: biotin (DBCO-PEG4, internal U)

Sequence | binding result (hnRNP L; circular (T4 RNA ligase)) | binding result (IMP3; circular (T4 RNA ligase)) | binding result (IMP3) | binding result (hnRNP L) | also measured
GGGAGUAAGCCCUGCCUGUCUAUUGAUGUCGCUUACAGUA [control circular] | no binding |  |  |  | 
GGGAGUAAGCCACACACACACACACACACACACACACACAGCUUACAGUA [(CA)15 circular] | binds | binds more weakly |  |  | 
GGGAGUAAGCCACACACACACACACACACACACACACACACACACACACAGCUUACAGUA [(CA)20 circular] | binds | binds more weakly |  |  | 
GGGAGUAAGCCACACACACACACACACACAGCUUACAGUA [(CA)10 linear] |  |  | binds more weakly | binds | 
GGGAGUAAGCAUACAUGACACACACACGCAGCUUACAGUA [CA-SELEX (L#51) linear] |  |  |  | binds | binding result (IMP3; background level): no binding
GGGAGUAAGCCCUGCCUGUCUAUUGAUGUCGCUUACAGUA [control linear] |  |  |  | no binding | 
GGGAGUAAGCCACACACACACACACACACAGCUUACAGUA [(CA)10 circular] | binds | binds more weakly |  |  | 
GGGAGUAAGCCACACACACACACACACACACACACACACACACACACACAGCUUACAGUA [(CA)20 linear] |  |  | binds more weakly | binds | 
GGGAGUAAGCAUACAUGACACACACACGCAGCUUACAGUA [CA-SELEX (L#51) circular] | binds |  |  |  | binding result (IMP3; background level, circular (T4 RNA ligase)): no binding
GGGAGUAAGCCACACACACACACACACACACACACACACAGCUUACAGUA [(CA)15 linear] |  |  | binds more weakly | binds | 

Construct, isoform or probe ends are uncertain for at least one entry. Where cells or extracts were used, other partners may take part. A negative result means that nothing was seen under these conditions. At least one verdict rests on a figure or table, not on a statement of the authors. For part of these data: The comparison behind a weaker result is the experiment's own reference, which may not be listed here.
